Assay results: publication PMC7819943, “Rice protein-binding microarrays: a tool to detect cis-acting elements near promoter regions in rice”
Some of the results follow.

The chains behind the UniProt entries cited, without tags or fusion partners.
UniProt Q0JBA9, entry or part of it: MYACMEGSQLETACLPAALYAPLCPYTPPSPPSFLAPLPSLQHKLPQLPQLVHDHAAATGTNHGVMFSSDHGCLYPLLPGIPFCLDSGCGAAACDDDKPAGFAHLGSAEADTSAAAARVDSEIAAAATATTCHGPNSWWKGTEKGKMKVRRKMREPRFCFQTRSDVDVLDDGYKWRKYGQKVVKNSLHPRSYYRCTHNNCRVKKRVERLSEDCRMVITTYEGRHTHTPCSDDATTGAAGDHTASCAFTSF

These sequences were tested against OsWRKY34 (Oryza sativa, UniProt Q0JBA9 1-250) (assay: protein-binding microarray (RPBM); PBS, 2% BSA, 51.3 ng/ul salmon testes DNA, 50 uM zinc acetate, 200 nM TF, 25 C, 1 h; high values mean tight binding). Details: protein: recombinant; tags: N-terminal polyhistidine and DsRed monomer fusion (pET32a); label: CyDye5-dUTP incorporated in the synthesized complementary strand; 3' TTTTT single-stranded linker to array surface; dsDNA, one strand shown.
How it was run: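 Binding signal is reported as fluorescence intensity per feature (arbitrary units) from an Axon 4000B scanner. Incubation used 200 nM of each Ni–NTA-purified, N-terminally polyhistidine- and DsRed-fused transcription factor from E. coli BL21-CodonPlus on a double-stranded custom Agilent array for 1 h at 25 °C, with 50 µM zinc acetate in the buffer, followed by washing.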

Sequence	binding signal
ATTTGCGCACCCTCTCGTGCCACTACCGTCAGTTGACCGTCGGAGTCACCTAGTGCAG	9460 fluorescence intensity (a.u.)
CATCCACGGCCGCCTCGCGTTCGTCGACCGCCTCGCCGTCCGGAGTCACCTAGTGCAG	9630 fluorescence intensity (a.u.)
CTAATCTTGATTATTTCCATGTACTGTAGTATTGTACTGACGGAGTCACCTAGTGCAG	8490 fluorescence intensity (a.u.)
CGATCACCTGCACACACATGAACCAAACAACCGTTGTCTTCGGAGTCACCTAGTGCAG	9470 fluorescence intensity (a.u.)
TTATTTTCCCGGGAACCCACATGTCATCGTAGGAGCTTACCGGAGTCACCTAGTGCAG	9600 fluorescence intensity (a.u.)
ATATCGATCTCTCTTAATTAATTTCCCATCCAATCCAGTGCGGAGTCACCTAGTGCAG	8240 fluorescence intensity (a.u.)
CTGCTGTTTTTCTTTCATCTTCTTTGTGTTCTAGTGTTAGCGGAGTCACCTAGTGCAG	11500 fluorescence intensity (a.u.)
ACTCTTCCCGACGCCCATCTCGCGAACCCGAAATCGCCCACGGAGTCACCTAGTGCAG	8650 fluorescence intensity (a.u.)
GTCGTCGTCGCGTTTCCTTCTCCTTCCGGCTTCCTCGGTTCGGAGTCACCTAGTGCAG	10700 fluorescence intensity (a.u.)
TGTCCATACTCCATCGTCCTTGCTTGGCCGTTTGCCGGTGCGGAGTCACCTAGTGCAG	8780 fluorescence intensity (a.u.)
GCGCCCACGAATATTACGCATATGCAAGTGGACTTTCAACCGGAGTCACCTAGTGCAG	8500 fluorescence intensity (a.u.)
CACTCTGCCGTCGTCGCATCCGTCGTCTCGCCGCCACCGACGGAGTCACCTAGTGCAG	8190 fluorescence intensity (a.u.)
ATATGGCAGCTACCTCACACCACTCTTCTCATCTTCCTCGCGGAGTCACCTAGTGCAG	12800 fluorescence intensity (a.u.)
TTGGGGAGGATTTTTTCTTTTCATTTCATAATTAATTTCCCGGAGTCACCTAGTGCAG	11400 fluorescence intensity (a.u.)
AACGCACTGCTCGCCATTGGCTCCATCCTTGACTCTGGCTCGGAGTCACCTAGTGCAG	8040 fluorescence intensity (a.u.)
TCCACTCGTCCACACATAACGCGGTTTCCTAGTTGACTGACGGAGTCACCTAGTGCAG	9040 fluorescence intensity (a.u.)
ATTCCACTTGCTTATGAAACCACTACAGTATTTGCAAATTCGGAGTCACCTAGTGCAG	8910 fluorescence intensity (a.u.)
GAGTTCATCTCCACCCTCGTCTTCGTCTTCGCCGGCGTCGCGGAGTCACCTAGTGCAG	8192 fluorescence intensity (a.u.)
TAGGTGTATCAGTTGTGTGCCATTCTCGTCTCTTCTCCGCCGGAGTCACCTAGTGCAG	13100 fluorescence intensity (a.u.)
CCCTCCTCTCGCCTGGCCGCCGCGCACCGTCTCCCTCCTCCGGAGTCACCTAGTGCAG	8350 fluorescence intensity (a.u.)
GTAATGGTTTTATTTTTTCATACATCTTTCTCTTTTCTTCCGGAGTCACCTAGTGCAG	10700 fluorescence intensity (a.u.)
TTCTTCCCAGATCGTGCTTCTCCCACTCGGATCAGCCGCCCGGAGTCACCTAGTGCAG	8110 fluorescence intensity (a.u.)
TGTATAGCTACATATTCACGCCACACCGCATCGTCATCTACGGAGTCACCTAGTGCAG	8910 fluorescence intensity (a.u.)

Reformatted: results already given.

| Sequence | binding signal |
| --- | --- |
| ACTCTTCCCGACGCCCATCTCGCGAACCCGAAATCGCCCACGGAGTCACCTAGTGCAG | 8650 fluorescence intensity (a.u.) |
| GTCGTCGTCGCGTTTCCTTCTCCTTCCGGCTTCCTCGGTTCGGAGTCACCTAGTGCAG | 10700 fluorescence intensity (a.u.) |
